Data: paper PMC11109641
No constants are given. Whether binding was seen depends on the method and setting. Binding seen in cells or lysates may run through a third protein. Some results given as binding are weak or reduced against the parent protein; the word gives no strength.

Protein sequences, listed by entry. Tags and fused reporters are not part of them.
UniProt Q96EB6: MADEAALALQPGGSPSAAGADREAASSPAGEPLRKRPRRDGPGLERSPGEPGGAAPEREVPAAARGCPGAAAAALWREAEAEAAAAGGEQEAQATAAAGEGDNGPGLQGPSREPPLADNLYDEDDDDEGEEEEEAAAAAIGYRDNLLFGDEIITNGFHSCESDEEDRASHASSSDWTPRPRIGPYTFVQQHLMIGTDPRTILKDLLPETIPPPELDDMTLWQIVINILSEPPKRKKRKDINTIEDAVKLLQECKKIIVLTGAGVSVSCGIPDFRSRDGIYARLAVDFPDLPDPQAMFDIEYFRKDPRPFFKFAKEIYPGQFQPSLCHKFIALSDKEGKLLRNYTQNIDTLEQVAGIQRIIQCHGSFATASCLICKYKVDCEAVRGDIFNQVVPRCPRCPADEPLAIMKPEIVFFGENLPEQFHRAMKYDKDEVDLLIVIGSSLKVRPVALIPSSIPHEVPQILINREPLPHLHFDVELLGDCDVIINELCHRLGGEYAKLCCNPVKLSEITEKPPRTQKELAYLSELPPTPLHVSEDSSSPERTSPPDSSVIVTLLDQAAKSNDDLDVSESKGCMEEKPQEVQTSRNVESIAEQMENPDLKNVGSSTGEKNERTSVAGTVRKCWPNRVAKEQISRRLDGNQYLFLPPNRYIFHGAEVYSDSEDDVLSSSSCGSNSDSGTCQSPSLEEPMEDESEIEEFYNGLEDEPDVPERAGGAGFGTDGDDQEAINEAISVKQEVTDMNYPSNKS
UniProt Q92793: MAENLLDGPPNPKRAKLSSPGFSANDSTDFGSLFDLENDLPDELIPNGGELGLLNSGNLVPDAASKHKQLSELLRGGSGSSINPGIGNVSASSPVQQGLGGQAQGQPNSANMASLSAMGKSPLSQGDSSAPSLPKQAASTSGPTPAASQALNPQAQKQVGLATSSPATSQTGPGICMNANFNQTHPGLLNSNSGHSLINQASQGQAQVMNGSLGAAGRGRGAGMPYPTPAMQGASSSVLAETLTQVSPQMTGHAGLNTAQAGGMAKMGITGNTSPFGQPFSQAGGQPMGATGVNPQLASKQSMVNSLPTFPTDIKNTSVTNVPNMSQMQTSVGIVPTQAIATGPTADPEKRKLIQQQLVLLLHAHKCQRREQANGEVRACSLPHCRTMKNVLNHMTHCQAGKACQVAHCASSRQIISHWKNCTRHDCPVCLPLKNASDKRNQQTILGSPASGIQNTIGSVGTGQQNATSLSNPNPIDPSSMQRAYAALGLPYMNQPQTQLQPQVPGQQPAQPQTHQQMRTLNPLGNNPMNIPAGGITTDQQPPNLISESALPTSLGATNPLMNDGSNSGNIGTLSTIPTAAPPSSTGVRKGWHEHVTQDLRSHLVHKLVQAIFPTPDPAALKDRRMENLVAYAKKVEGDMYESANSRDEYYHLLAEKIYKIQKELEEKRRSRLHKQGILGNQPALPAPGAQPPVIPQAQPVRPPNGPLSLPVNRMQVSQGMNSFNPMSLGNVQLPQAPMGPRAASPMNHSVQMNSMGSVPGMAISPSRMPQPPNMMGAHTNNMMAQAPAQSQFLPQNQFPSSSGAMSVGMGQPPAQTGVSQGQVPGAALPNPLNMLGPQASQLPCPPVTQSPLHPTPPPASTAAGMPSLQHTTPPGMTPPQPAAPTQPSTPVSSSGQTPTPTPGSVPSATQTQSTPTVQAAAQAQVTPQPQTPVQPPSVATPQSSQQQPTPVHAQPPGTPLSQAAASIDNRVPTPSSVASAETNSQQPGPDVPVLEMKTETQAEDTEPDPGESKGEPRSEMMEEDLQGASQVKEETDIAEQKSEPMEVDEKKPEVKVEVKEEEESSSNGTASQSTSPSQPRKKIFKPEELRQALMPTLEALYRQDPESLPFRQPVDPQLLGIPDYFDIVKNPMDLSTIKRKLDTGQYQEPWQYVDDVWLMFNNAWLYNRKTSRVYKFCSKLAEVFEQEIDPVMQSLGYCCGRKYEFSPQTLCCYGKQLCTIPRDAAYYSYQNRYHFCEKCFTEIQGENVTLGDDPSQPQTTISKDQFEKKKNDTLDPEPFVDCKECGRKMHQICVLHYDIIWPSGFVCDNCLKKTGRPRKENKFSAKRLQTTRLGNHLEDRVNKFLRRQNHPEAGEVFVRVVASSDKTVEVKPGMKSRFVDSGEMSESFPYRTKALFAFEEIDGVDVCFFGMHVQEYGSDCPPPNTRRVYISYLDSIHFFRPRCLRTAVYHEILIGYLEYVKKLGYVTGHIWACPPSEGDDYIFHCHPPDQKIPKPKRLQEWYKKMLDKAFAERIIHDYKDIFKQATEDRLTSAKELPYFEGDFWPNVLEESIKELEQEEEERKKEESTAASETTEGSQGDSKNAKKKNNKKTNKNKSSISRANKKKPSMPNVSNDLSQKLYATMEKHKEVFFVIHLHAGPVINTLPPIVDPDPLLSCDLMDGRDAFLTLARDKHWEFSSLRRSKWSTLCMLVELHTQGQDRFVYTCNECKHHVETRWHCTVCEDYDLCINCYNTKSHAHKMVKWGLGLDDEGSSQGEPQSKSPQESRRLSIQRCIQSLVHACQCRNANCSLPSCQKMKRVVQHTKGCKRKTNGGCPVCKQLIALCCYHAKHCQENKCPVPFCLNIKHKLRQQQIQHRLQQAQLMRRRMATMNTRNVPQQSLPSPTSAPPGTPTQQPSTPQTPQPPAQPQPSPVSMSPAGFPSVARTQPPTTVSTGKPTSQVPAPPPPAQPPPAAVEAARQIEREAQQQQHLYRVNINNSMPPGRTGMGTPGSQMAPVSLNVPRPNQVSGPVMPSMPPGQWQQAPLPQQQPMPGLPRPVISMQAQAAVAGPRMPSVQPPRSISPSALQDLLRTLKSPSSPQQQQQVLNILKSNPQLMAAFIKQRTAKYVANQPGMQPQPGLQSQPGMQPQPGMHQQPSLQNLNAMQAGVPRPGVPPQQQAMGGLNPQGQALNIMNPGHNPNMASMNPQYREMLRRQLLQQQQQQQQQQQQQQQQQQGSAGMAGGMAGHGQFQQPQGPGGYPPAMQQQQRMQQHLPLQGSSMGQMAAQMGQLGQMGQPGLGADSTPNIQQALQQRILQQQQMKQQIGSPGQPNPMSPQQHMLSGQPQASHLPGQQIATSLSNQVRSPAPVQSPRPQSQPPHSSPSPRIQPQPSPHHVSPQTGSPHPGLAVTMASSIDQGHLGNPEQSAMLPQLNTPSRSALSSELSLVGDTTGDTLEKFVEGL

Biological target: SIRT1 (human) (UniProt Q96EB6)
Assay: co-IP; CBP and SIRT1 in HEK293T cells; bait and tags not stated

## CREB binding protein (CBP) acetyltransferase (from UniProt Q92793 1-2442) (enzyme)
  binding: binds
